Source: PMC8403735
Results are given in words; binding and its absence hold for the method and conditions named. In cells and extracts the contact can be indirect. Some entries that bind do so weakly or less than the wild type.

By UniProt entry, the sequences of proteins in these tests, tags left out. Where a name states a change or a piece, a line headed by the entry shows the natural chain unless it says otherwise. Residues count along the entry.
UniProt Q9Z0J4: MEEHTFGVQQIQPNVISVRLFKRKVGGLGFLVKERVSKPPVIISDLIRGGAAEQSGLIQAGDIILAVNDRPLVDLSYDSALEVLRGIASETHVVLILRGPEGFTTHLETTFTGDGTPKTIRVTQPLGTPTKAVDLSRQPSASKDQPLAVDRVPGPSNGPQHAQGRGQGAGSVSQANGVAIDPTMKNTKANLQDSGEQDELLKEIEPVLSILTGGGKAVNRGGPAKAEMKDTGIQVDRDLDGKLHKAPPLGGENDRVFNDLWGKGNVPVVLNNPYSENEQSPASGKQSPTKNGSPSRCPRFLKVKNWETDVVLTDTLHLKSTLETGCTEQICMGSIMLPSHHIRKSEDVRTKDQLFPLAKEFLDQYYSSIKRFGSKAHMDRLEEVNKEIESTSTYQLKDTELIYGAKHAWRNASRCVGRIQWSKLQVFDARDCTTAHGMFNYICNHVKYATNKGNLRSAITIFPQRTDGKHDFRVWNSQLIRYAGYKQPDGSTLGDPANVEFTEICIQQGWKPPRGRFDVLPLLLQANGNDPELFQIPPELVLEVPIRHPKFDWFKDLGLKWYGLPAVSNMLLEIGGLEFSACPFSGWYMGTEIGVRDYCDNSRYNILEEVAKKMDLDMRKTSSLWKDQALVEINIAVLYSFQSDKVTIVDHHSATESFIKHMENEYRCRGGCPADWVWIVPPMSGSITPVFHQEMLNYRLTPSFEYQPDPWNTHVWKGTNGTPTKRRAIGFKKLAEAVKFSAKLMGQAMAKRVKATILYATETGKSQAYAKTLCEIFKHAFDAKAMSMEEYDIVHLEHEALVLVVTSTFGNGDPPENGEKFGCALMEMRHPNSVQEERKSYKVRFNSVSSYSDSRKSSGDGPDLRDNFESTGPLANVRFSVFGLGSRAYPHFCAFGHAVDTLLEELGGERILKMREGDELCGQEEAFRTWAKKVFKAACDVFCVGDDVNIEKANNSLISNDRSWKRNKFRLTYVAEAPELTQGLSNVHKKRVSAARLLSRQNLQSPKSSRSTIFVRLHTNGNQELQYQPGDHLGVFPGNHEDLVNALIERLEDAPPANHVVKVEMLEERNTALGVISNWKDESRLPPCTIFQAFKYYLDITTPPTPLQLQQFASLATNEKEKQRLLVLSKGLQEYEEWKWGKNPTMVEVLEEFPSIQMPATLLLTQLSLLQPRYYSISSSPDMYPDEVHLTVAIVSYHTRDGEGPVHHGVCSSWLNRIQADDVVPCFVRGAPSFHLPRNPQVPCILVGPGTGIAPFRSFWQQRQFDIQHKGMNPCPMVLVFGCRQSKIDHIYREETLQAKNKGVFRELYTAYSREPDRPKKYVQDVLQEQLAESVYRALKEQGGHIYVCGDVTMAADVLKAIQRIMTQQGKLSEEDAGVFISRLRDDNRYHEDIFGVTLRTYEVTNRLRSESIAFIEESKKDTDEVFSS
UniProt Q9D3A8: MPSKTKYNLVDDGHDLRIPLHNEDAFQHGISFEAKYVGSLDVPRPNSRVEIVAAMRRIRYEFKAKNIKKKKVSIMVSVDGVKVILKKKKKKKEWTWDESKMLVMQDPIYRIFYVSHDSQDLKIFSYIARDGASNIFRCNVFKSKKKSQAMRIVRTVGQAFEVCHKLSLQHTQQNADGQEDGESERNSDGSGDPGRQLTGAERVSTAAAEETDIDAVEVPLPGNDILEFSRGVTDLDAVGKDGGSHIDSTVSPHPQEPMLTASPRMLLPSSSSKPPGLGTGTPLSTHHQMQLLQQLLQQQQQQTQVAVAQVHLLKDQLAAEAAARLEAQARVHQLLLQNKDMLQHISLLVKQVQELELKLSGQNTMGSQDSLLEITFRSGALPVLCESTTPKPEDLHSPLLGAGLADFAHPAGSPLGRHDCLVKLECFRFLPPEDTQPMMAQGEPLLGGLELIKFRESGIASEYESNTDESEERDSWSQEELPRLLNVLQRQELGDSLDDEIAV
mCherry.3xFLAG.NOS1AP_(396-503) (virally overexpressed carboxyterminus of murine NOS1AP): residues 396-503 of Q9D3A8

Target: neuronal nitric oxide synthase (mouse (endogenous in dorsal hippocampus)) (UniProt Q9Z0J4)
Test: co-IP; nNOS antibody (mouse monoclonal A-11, 2.5 ug/ml) added to dorsal hippocampus lysates (low-salt buffer, protease inhibitors, 1 mM DTT, 0.5% Igepal CA-630), 2 h at 4 °C, protein-A resin; Western blot for nNOS, NOS1AP and PSD-95; mice injected with rAAV for mCherry (control), NOS1AP or NOS1AP_(396-503)

Substance | binding
endogenous nitric oxide synthase 1 adaptor protein (from UniProt Q9D3A8 1-503) | binds
mCherry.3xFLAG.NOS1AP (virally overexpressed murine full-length NOS1AP) (from UniProt Q9D3A8-1 1-503) | binds
mCherry.3xFLAG.NOS1AP_(396-503) (virally overexpressed carboxyterminus of murine NOS1AP) (from UniProt Q9D3A8-1 396-503) (domain or fragment) | binds
